# Where two headings read alike, the source gives them in different places. The source gives many values for each of these; only a part stands here.
# Target: M^pro (Severe acute respiratory syndrome coronavirus 2, UniProt P0DTD1)
# Format: binding
structure (smiles),measurement,setting,value
COc1cccc2[nH]c(C(=O)N[C@@H](CC(C)C)C(=O)N[C@H](/C=C/[N+](=O)[O-])C[C@@H]3CCNC3=O)cc12 [FGA146],Fraction unfolded,"25 mM, 20 °C",-0.07706
same,Fraction unfolded,"25 mM, 20.5 °C",0.0593
same,Fraction unfolded,"25 mM, 21 °C",-0.00904
same,Fraction unfolded,"25 mM, 33 °C",0.0786
same,Fraction unfolded,"25 mM, 33.5 °C",-0.05017
same,Fraction unfolded,"25 mM, 34 °C",0.06047
same,Fraction unfolded,"25 mM, 34.5 °C",-0.01983
same,Fraction unfolded,"25 mM, 35 °C",0.03448
same,Fraction unfolded,"25 mM, 35.5 °C",-0.04231
same,Fraction unfolded,"25 mM, 36 °C",0.01333
same,Fraction unfolded,"25 mM, 36.5 °C",0.01655
same,Fraction unfolded,"25 mM, 37 °C",0.01632
same,Fraction unfolded,"25 mM, 37.5 °C",0.04079
same,Fraction unfolded,"25 mM, 38 °C",0.0059
same,Fraction unfolded,"25 mM, 38.5 °C",0.0724
same,Fraction unfolded,"25 mM, 39 °C",-0.05253
same,Fraction unfolded,"25 mM, 39.5 °C",-0.06377
same,Fraction unfolded,"25 mM, 40 °C",0.05897
same,Fraction unfolded,"25 mM, 40.5 °C",0.2474
same,Fraction unfolded,"25 mM, 41 °C",0.05081
same,Fraction unfolded,"25 mM, 41.5 °C",0.3107
same,Fraction unfolded,"25 mM, 42 °C",0.1845
same,Fraction unfolded,"25 mM, 42.5 °C",0.1749
same,Fraction unfolded,"25 mM, 43 °C",0.01336
same,Fraction unfolded,"25 mM, 43.5 °C",0.1337
same,Fraction unfolded,"25 mM, 44 °C",0.4157
same,Fraction unfolded,"25 mM, 44.5 °C",0.2834
same,Fraction unfolded,"25 mM, 45 °C",0.6539
same,Fraction unfolded,"25 mM, 45.5 °C",0.7235
same,Fraction unfolded,"25 mM, 46 °C",0.6473
same,Fraction unfolded,"25 mM, 46.5 °C",0.4957
same,Fraction unfolded,"25 mM, 47 °C",0.8613
same,Fraction unfolded,"25 mM, 47.5 °C",0.8732
same,Fraction unfolded,"25 mM, 48 °C",0.8705
same,Fraction unfolded,"25 mM, 48.5 °C",0.8937
same,Fraction unfolded,"25 mM, 49 °C",1.007
same,Fraction unfolded,"25 mM, 49.5 °C",0.8743
same,Fraction unfolded,"25 mM, 50 °C",0.8769
same,Fraction unfolded,"25 mM, 50.5 °C",1.037
same,Fraction unfolded,"25 mM, 51 °C",1.013
same,Fraction unfolded,"25 mM, 51.5 °C",1.018
same,Fraction unfolded,"25 mM, 52 °C",1.016
same,Fraction unfolded,"25 mM, 52.5 °C",1.031
same,Fraction unfolded,"25 mM, 53 °C",0.9532
same,Fraction unfolded,"25 mM, 53.5 °C",1.04
same,Fraction unfolded,"25 mM, 54 °C",0.8789
same,Fraction unfolded,"25 mM, 54.5 °C",1
same,Fraction unfolded,"25 mM, 55 °C",1.07
same,Fraction unfolded,"25 mM, 55.5 °C",1.013
same,Fraction unfolded,"25 mM, 56 °C",0.9226
same,Fraction unfolded,"25 mM, 56.5 °C",0.9616
same,Fraction unfolded,"25 mM, 57 °C",1.036
same,Fraction unfolded,"25 mM, 57.5 °C",1.029
same,Fraction unfolded,"25 mM, 58 °C",0.983
same,Fraction unfolded,"25 mM, 58.5 °C",1.036
same,Fraction unfolded,"25 mM, 59 °C",1.025
same,Fraction unfolded,"25 mM, 59.5 °C",0.9589
same,Fraction unfolded,"25 mM, 60 °C",0.9644
same,Fraction unfolded,"25 mM, 60.5 °C",1.026
same,Fraction unfolded,"25 mM, 61 °C",0.964
same,Fraction unfolded,"25 mM, 61.5 °C",0.9813
same,Fraction unfolded,"25 mM, 62 °C",1.01
same,Fraction unfolded,"25 mM, 62.5 °C",1.013
same,Fraction unfolded,"25 mM, 63 °C",0.9596
same,Fraction unfolded,"25 mM, 63.5 °C",1.031
same,Fraction unfolded,"25 mM, 64 °C",1.031
same,Fraction unfolded,"25 mM, 64.5 °C",1.049
same,Fraction unfolded,"25 mM, 65 °C",0.9471
same,Fraction unfolded,"25 mM, 65.5 °C",0.9932
same,Fraction unfolded,"25 mM, 66 °C",0.9745
same,Fraction unfolded,"100 mM, 20 °C",0.04267
same,Fraction unfolded,"100 mM, 20.5 °C",-0.01602
same,Fraction unfolded,"100 mM, 21 °C",0.0059
same,Fraction unfolded,"100 mM, 33 °C",0.0786
same,Fraction unfolded,"100 mM, 33.5 °C",-0.05017
same,Fraction unfolded,"100 mM, 34 °C",0.06047
same,Fraction unfolded,"100 mM, 34.5 °C",-0.01983
same,Fraction unfolded,"100 mM, 35 °C",0.03448
same,Fraction unfolded,"100 mM, 35.5 °C",-0.02452
same,Fraction unfolded,"100 mM, 36 °C",0.01123
same,Fraction unfolded,"100 mM, 36.5 °C",0.1676
same,Fraction unfolded,"100 mM, 37 °C",0.01918
same,Fraction unfolded,"100 mM, 37.5 °C",0.12
same,Fraction unfolded,"100 mM, 38 °C",0.2356
same,Fraction unfolded,"100 mM, 38.5 °C",0.07016
same,Fraction unfolded,"100 mM, 39 °C",0.273
same,Fraction unfolded,"100 mM, 39.5 °C",0.3854
same,Fraction unfolded,"100 mM, 40 °C",0.2776
same,Fraction unfolded,"100 mM, 40.5 °C",0.3535
same,Fraction unfolded,"100 mM, 41 °C",0.3626
same,Fraction unfolded,"100 mM, 41.5 °C",0.3626
same,Fraction unfolded,"100 mM, 42 °C",0.4645
same,Fraction unfolded,"100 mM, 42.5 °C",0.4952
same,Fraction unfolded,"100 mM, 43 °C",0.5051
same,Fraction unfolded,"100 mM, 43.5 °C",0.4723
same,Fraction unfolded,"100 mM, 44 °C",0.4876
same,Fraction unfolded,"100 mM, 44.5 °C",0.5511
same,Fraction unfolded,"100 mM, 45 °C",0.6282
same,Fraction unfolded,"100 mM, 45.5 °C",0.7309
same,Fraction unfolded,"100 mM, 46 °C",0.7887
same,Fraction unfolded,"100 mM, 46.5 °C",0.8063
same,Fraction unfolded,"100 mM, 47 °C",0.8768
same,Fraction unfolded,"100 mM, 47.5 °C",0.8562
same,Fraction unfolded,"100 mM, 48 °C",0.8853
same,Fraction unfolded,"100 mM, 48.5 °C",0.8898
same,Fraction unfolded,"100 mM, 49 °C",0.8979
same,Fraction unfolded,"100 mM, 49.5 °C",0.8905
same,Fraction unfolded,"100 mM, 50 °C",0.8425
same,Fraction unfolded,"100 mM, 50.5 °C",0.8846
same,Fraction unfolded,"100 mM, 51 °C",0.8748
same,Fraction unfolded,"100 mM, 51.5 °C",0.8744
same,Fraction unfolded,"100 mM, 52 °C",0.8776
same,Fraction unfolded,"100 mM, 52.5 °C",0.8803
same,Fraction unfolded,"100 mM, 53 °C",0.8955
same,Fraction unfolded,"100 mM, 53.5 °C",0.933
same,Fraction unfolded,"100 mM, 54 °C",0.9493
same,Fraction unfolded,"100 mM, 54.5 °C",1.013
same,Fraction unfolded,"100 mM, 55 °C",1.007
same,Fraction unfolded,"100 mM, 55.5 °C",0.9957
same,Fraction unfolded,"100 mM, 56 °C",1.002
same,Fraction unfolded,"100 mM, 56.5 °C",1.01
same,Fraction unfolded,"100 mM, 57 °C",0.9947
same,Fraction unfolded,"100 mM, 57.5 °C",0.991
same,Fraction unfolded,"100 mM, 58 °C",0.9805
same,Fraction unfolded,"100 mM, 58.5 °C",0.9602
same,Fraction unfolded,"100 mM, 59 °C",0.9536
same,Fraction unfolded,"100 mM, 59.5 °C",0.9821
same,Fraction unfolded,"100 mM, 60 °C",0.9922
same,Fraction unfolded,"100 mM, 60.5 °C",1.065
same,Fraction unfolded,"100 mM, 61 °C",1.048
same,Fraction unfolded,"100 mM, 61.5 °C",1.055
same,Fraction unfolded,"100 mM, 62 °C",1.018
same,Fraction unfolded,"100 mM, 62.5 °C",0.9734
same,Fraction unfolded,"100 mM, 63 °C",0.9259
same,Fraction unfolded,"100 mM, 63.5 °C",0.9303
same,Fraction unfolded,"100 mM, 64 °C",1.01
same,Fraction unfolded,"100 mM, 64.5 °C",0.9745
same,Fraction unfolded,"100 mM, 65 °C",0.9674
same,Fraction unfolded,"100 mM, 65.5 °C",1.009
same,Fraction unfolded,"100 mM, 66 °C",1.012

# Reference: publication PMC10796436, “Peptidyl nitroalkene inhibitors of main protease rationalized by computational and crystallographic investigations as antivirals against SARS-CoV-2” (Communications Chemistry, 2024)
